Experimental data as given in the supplement of paper PMC4635364.
Structures can show the parent of a compound that is named as a salt. This is one part of the list. Repeats in this data set agree poorly, so a single value says little.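 Human fetal ventral-midbrain neural progenitor line ReNCell VM, differentiated without mitogens. Images stained for doublecortin (early neurons) or tyrosine hydroxylase (dopaminergic neurons) were scored by blinded raters against untreated wells (0 = no change). Repeats and both raters were averaged, and compounds averaging 2 or higher were picked as hits for retesting.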

system: ReNCell VM; experiment: dopaminergic neuron differentiation score (TH+ cell fraction vs untreated, manual image score) (score (0 to 3)); higher = more TH+ dopaminergic neuron differentiation; conditions: library: Prestwick; 2 uM; 4 weeks; BDNF 10 ng/ml + GDNF 10 ng/ml

Dopaminergic neuron differentiation score, inactive:
CCC1NC(=O)c2cc(S(N)(=O)=O)c(Cl)cc2N1 (stereo not drawn) [Quinethazone] 0
Cc1nccn1CC1CCc2c(c3ccccc3n2C)C1=O (stereo not drawn) [Ondansetron Hydrochloride] 0
N[C@@H](Cc1cc(I)c(Oc2ccc(O)c(I)c2)c(I)c1)C(=O)O [Liothyronine] 0
CC(C)(C)NC[C@@H](O)COc1cccc2c1CCCC2=O [(+) -Levobunolol hydrochloride] 0
CCOC1O[C@H]([C@@H](COCc2ccccc2)OCc2ccccc2)[C@H](OCc2ccccc2)[C@H]1O (stereo partly drawn) [Tribenoside] 0
NS(=O)(=O)c1cc2c(cc1Cl)NC(C(Cl)Cl)NS2(=O)=O (stereo not drawn) [Trichlormethiazide] 0
Cc1ccc(Cl)c(Nc2ccccc2C(=O)O)c1Cl [Meclofenamic acid sodium salt monohydrate] 0

same assay, conditions: library: Spectrum; 2 uM; 4 weeks; BDNF 10 ng/ml + GDNF 10 ng/ml

Dopaminergic neuron differentiation score, inactive:
Cc1cc(-n2c(=O)[nH]c(=O)n(C)c2=O)ccc1Oc1ccc(SC(F)(F)F)cc1 0
CN1CCC(=C2c3ccccc3CCc3sccc32)CC1 0
C=C1CC[C@H](O)C/C1=C/C=C1\CCC[C@]2(C)[C@@H]([C@H](C)/C=C/[C@H](C)C(C)C)CC[C@@H]12 0
CN1CCN(CC/C=C2/c3ccccc3Sc3ccc(S(=O)(=O)N(C)C)cc32)CC1 1
COc1cc(/C=C/C(=O)O)ccc1O 0
Cn1c(=O)c2c(ncn2CC(O)CO)n(C)c1=O (stereo not drawn) 0
Cc1cc2nc3c(=O)[nH]c(=O)nc-3n(C[C@H](O)[C@H](O)[C@H](O)CO)c2cc1C 0
O=S(=O)(O)c1cc(N=C=S)ccc1/C=C/c1ccc(N=C=S)cc1S(=O)(=O)O 0
CC(=O)[C@H]1CC[C@H]2[C@@H]3CC=C4C[C@@H](OC(=O)CCC(=O)O)CC[C@]4(C)[C@H]3CC[C@]12C 0
O=c1c(O)c(-c2ccc(O)c(O)c2)oc2c(O[C@@H]3O[C@H](CO)[C@@H](O)[C@H](O)[C@H]3O)c(O)cc(O)c12 0
CN1C(C(=O)Nc2ccccn2)=C(O)c2sc(Cl)cc2S1(=O)=O 0
CCn1cc(C(=O)O)c(=O)c2cc(F)c(N3CCNCC3)cc21 0
COc1cc(/C=C/C(=O)N2CCC=CC2=O)cc(OC)c1OC 0
C1CCN2C[C@@H]3C[C@@H](CN4CCCC[C@@H]34)[C@H]2C1 0
N[C@@H](Cc1cc(I)c(Oc2cc(I)c(O)c(I)c2)c(I)c1)C(=O)O 0
COCCCOc1cc(C[C@@H](C[C@H](N)[C@@H](O)C[C@H](C(=O)NCC(C)(C)C(N)=O)C(C)C)C(C)C)ccc1OC 0
COc1ccc(O)cc1 0
Cc1cc(OC(=O)c2c(C)cc(O)cc2O)cc(O)c1C(=O)O 0
CCN(CCO)CCCC(C)Nc1ccnc2cc(Cl)ccc12 (stereo not drawn) 0
Nc1nc(N)c2nc(-c3ccccc3)c(N)nc2n1 0

Looked up by structure from the entries so far, two records:
Dopaminergic neuron differentiation score, inactive:
Cn1c(=O)c2c(ncn2CC(O)CO)n(C)c1=O (stereo not drawn) 0
COc1ccc(O)cc1 0

same assay, conditions: library: Tocriscreen; 2 uM; 4 weeks; BDNF 10 ng/ml + GDNF 10 ng/ml

Dopaminergic neuron differentiation score, inactive:
COC(=O)[C@@H]1CC2=CC(=O)CC[C@]2(C)[C@@]23O[C@@H]2C[C@@]2(C)[C@@H](CC[C@@]24CCC(=O)O4)[C@H]13 [Eplerenone] 0
CS(=O)(=O)CCNCc1nc(-c2ccc3ncnc(Nc4ccc(OCc5cccc(F)c5)c(Cl)c4)c3c2)cs1 0
NC(C(=O)O)c1cc(O)cc(O)c1 (racemic) 1
O=C1NC(=O)c2cc(Nc3ccc(F)cc3)c(Nc3ccc(F)cc3)cc21 0
CCCCC1CCC(c2nc(-c3ccncc3)no2)CC1 (stereo not drawn) 0
COc1cc(N)c(Cl)cc1C(=O)CCC1CCN(CCNS(C)(=O)=O)CC1 0
